PubChem BioAssay AID1259405 – NCATS | 2018
This is a random part of about 50,000 deposited reagents. About 4,000 of them (8%) were called active. 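Mouse siRNA library applied to hamster cells; one well for each siRNA.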 Entries without a mark were called inactive. Reagents against one gene are numbered here.

Aim: 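Knock-downs that lift recombinant protein yield in hamster ovary cells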 (primary screen)
Cells: Chinese hamster CHO-K1 ovary cells with stable secreted eGFP expression
Reagent: single siRNA against mouse genes, 0.8 pmol siRNA per well (2 µl of 400 nM stock)
Time to read-out: 3 days
Detection: 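Per-well intracellular GFP measured by laser scanning cytometry, plus viability from ATP luminescence, each relative to plate median of non-targeting control wells, in %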
Scale: GFP, % of control: higher = more GFP per well, higher productivity; viability (ATP), % of control: higher = more viable cells (more ATP)
Rule for the call: 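a knock-down is called active if GFP reaches 120% or more of non-targeting control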

Trps1 #1
- GFP, % of control: 46.6
- viability (ATP), % of control: 51.4

Trps1 #2
- GFP, % of control: 119
- viability (ATP), % of control: 74.4

Trps1 #3
- GFP, % of control: 89
- viability (ATP), % of control: 75.5

Caly #1
- GFP, % of control: 78.3
- viability (ATP), % of control: 59

Caly #2
- GFP, % of control: 96.3
- viability (ATP), % of control: 95.6

Pcif1 #1
- GFP, % of control: 45.2
- viability (ATP), % of control: 76.9

Pcif1 #2
- GFP, % of control: 101
- viability (ATP), % of control: 93.9

Pcif1 #3
- GFP, % of control: 92.3
- viability (ATP), % of control: 90.8

Rock1
- GFP, % of control: 62.5
- viability (ATP), % of control: 61.8

Abca5 #1
- GFP, % of control: 54.5
- viability (ATP), % of control: 82.9

Abca5 #2
- GFP, % of control: 63.1
- viability (ATP), % of control: 62.4

Abca5 #3
- GFP, % of control: 104
- viability (ATP), % of control: 91.4

Or10j2 #1
- GFP, % of control: 218 (active)
- viability (ATP), % of control: 106

Or10j2 #2
- GFP, % of control: 70.3
- viability (ATP), % of control: 61

Or10j2 #3
- GFP, % of control: 37.8
- viability (ATP), % of control: 42.8

Continued (3 carried over from the part before).
Or10j2 #1
- GFP, % of control: 218 (active)
- viability (ATP), % of control: 106

Or10j2 #2
- GFP, % of control: 70.3
- viability (ATP), % of control: 61

Or10j2 #3
- GFP, % of control: 37.8
- viability (ATP), % of control: 42.8

Ahcyl2 #1
- GFP, % of control: 55.1
- viability (ATP), % of control: 60.3

Ahcyl2 #2
- GFP, % of control: 39.9
- viability (ATP), % of control: 37.3

Ahcyl2 #3
- GFP, % of control: 67.3
- viability (ATP), % of control: 70.2

Nectin2 #1
- GFP, % of control: 34.4
- viability (ATP), % of control: 28.3

Nectin2 #2
- GFP, % of control: 105
- viability (ATP), % of control: 91.2

Nectin2 #3
- GFP, % of control: 58.9
- viability (ATP), % of control: 80.2

Hoxc8 #1
- GFP, % of control: 83.3
- viability (ATP), % of control: 115

Hoxc8 #2
- GFP, % of control: 54.3
- viability (ATP), % of control: 74.4

Hoxc8 #3
- GFP, % of control: 89.2
- viability (ATP), % of control: 71.7

Creld1 #1
- GFP, % of control: 59.4
- viability (ATP), % of control: 75.4

Creld1 #2
- GFP, % of control: 38.1
- viability (ATP), % of control: 39.2

Creld1 #3
- GFP, % of control: 83.8
- viability (ATP), % of control: 113
